# About 5,400 (1.8%) of roughly 300,000 compounds were called active. The inconclusive results got no clear call from the source; some entries with a clear call stand among them for comparison. The call rests on the fitted dose curve; tested in HEK293 cells. A potency beside an inconclusive call is a rough fit, not a confirmed value.
# Test: qHTS for inhibitors of binding or entry into cells for Marburg Virus
# Details: Marburg virus pseudotyped entry inhibition, cell reporter; activity change, negative = inhibition: at 37.8 µM (top of the series) unless noted
# On the % scale 0 is the no-effect control and ±100 the full control effect; potency means the concentration at half of the fitted maximal effect.
SMILES,Potency,"activity change, negative = inhibition"
Cc1cccc(N(CC(=O)NCc2ccco2)C(=O)CCC(=O)Nc2nccs2)c1C,"inconclusive: 0.316 µM [inhibitor, full curve, poor fit]",
c1ccc2c(c1)ncn2-c1ccc(-c2ccnc(-c3ccncc3)n2)cc1,"inconclusive: 1.26 µM [inhibitor, full curve, poor fit]",
Cc1cc(S(=O)(=O)N2CCN(c3ccccc3C)CC2)ccc1F,"inconclusive: 0.316 µM [activator, partial curve, poor fit]",
COc1ccc(N2CCN(C(=O)CCc3nnc4n(C)c(=O)c5sccc5n34)CC2)cc1,inactive,
COc1ccc(C(=O)O/N=C/c2c(C(F)(F)F)nn(C)c2SCc2ccccc2Cl)cc1,"inconclusive: 5.8 µM [inhibitor, partial curve, poor fit]",
CCOC(=O)C1C(=O)NC(N2CCOCC2)=NC1c1ccco1 (configuration not stated),"inconclusive: 31.6 µM [activator, single point]",
O=C(c1ccccc1)c1ccc2n1CCC2C(=O)O (configuration not stated),"inconclusive: 5.62 µM [inhibitor, single point]",
COc1cc(C(=O)Oc2ccccc2/C=N/NC(=O)c2ccc(Cl)cc2Cl)cc(OC)c1OC,"inconclusive: 22.4 µM [inhibitor, single point]",
Cc1ccc(-c2nc3ccccc3[nH]2)cc1NC(=O)COc1ccc(Cl)cc1Cl,inactive,
COc1ccc(S(=O)(=O)N2CCN(Cc3ccccc3[N+](=O)[O-])CC2)cc1,"inconclusive: 25.1 µM [inhibitor, single point]",
COc1ccc(CCN2C(=O)c3[nH]nc(-c4ccccc4O)c3C2c2ccc(C)cc2)cc1OC (configuration not stated),"inconclusive: 11.2 µM [inhibitor, single point]",
CCN(CC(=O)Nc1cccc(OC)c1)C(=O)c1cccc(S(=O)(=O)N2CCc3ccccc32)c1,"inconclusive: 35.5 µM [inhibitor, partial curve, poor fit]",
Cc1cccc(C)c1N(CC(=O)Nc1cc(Cl)ccc1Oc1ccccc1)S(C)(=O)=O,"inconclusive: 35.5 µM [inhibitor, single point]",
COc1cc(NC(=O)CN2C(=O)C(c3ccc(C)cc3)=NC23CCCCCC3)cc(OC)c1,inactive,
CC1CCCN(S(=O)(=O)c2ccc(C(=O)Nc3ccccc3-c3nc4ccccc4[nH]3)cc2)C1 (configuration not stated),,inconclusive: 8.62% [activator]
Cc1nc(C)n(CCNS(=O)(=O)c2ccccc2)n1,inactive,
CCOC(=O)CSc1nc2cc(OC)ccc2cc1C#N,"inconclusive: 8.2 µM [inhibitor, partial curve, poor fit]",
COC(=O)c1cnn(-c2cc(Oc3ccccc3)ncn2)c1N,inactive,
Cc1ccc2nsnc2c1S(=O)(=O)N1CCN(Cc2ccc3c(c2)OCO3)CC1,inactive,
C=CCOc1cccc(/C=N/NC(=O)C(=O)NCc2ccco2)c1,inactive,
COCCNc1oc(-c2ccc(Cl)cc2)nc1C#N,"inconclusive: 0.794 µM [activator, full curve]",

SMILES,Potency,"activity change, negative = inhibition"
COc1ccc(C2C3=C(OC(C)=O)c4ccccc4C3=Nc3c2c(=O)n(C)c(=O)n3C)cc1 (configuration not stated),"inconclusive: 6.51 µM [inhibitor, single point]",
N#C/C(=C\c1ccccc1[N+](=O)[O-])c1nc(C2CC2)cs1,inactive,
Cc1ccc(OCCCCN2CCc3ccccc3C2)c(C)c1,"inconclusive: 11.2 µM [inhibitor, partial curve, poor fit]",
FC(F)(F)c1ccc2c(c1)N(CCCN1CCN(CCCl)CC1)c1ccccc1S2,active: 20 µM,
O=C(NCc1ccc(F)cc1)C(c1ccco1)N(C(=O)c1csnn1)C1CC1 (configuration not stated),"inconclusive: 3.55 µM [inhibitor, single point]",
CCN(CC)S(=O)(=O)c1ccc(O)c(NC(=O)c2cc(-c3cc(OC)c(OC)c(OC)c3)nc3ccccc23)c1,active: 10 µM,
OCC1(CCOc2ccccc2)CCN(Cc2ccccc2OC(F)F)CC1,"inconclusive: 22.4 µM [inhibitor, single point]",
COc1cc(C(=O)OCC(=O)NC23CC4CC(CC(C4)C2)C3)cc(OC)c1OC,"inconclusive: 22.4 µM [inhibitor, single point]",
O=C(c1ccco1)N1CCN(Cc2cccc(F)c2)CC1,inactive,
CCCNC(=O)COC(=O)c1ccccc1C(=O)c1ccc(Cl)c([N+](=O)[O-])c1,active: 3.16 µM,
CCC(=O)N1CCc2cc(Br)cc(S(=O)(=O)CCC(=O)NCc3ccc(C)cc3)c21,"inconclusive: 1.12 µM [inhibitor, full curve, poor fit]",
CCOc1ccccc1-n1nnnc1SCc1nc2ccccc2s1,"inconclusive: 10 µM [inhibitor, single point]",
Cc1ccc(C)c(OCc2cc(C(=O)N(C)Cc3nccs3)no2)c1,inactive,
O=C1c2cccc3cccc(c23)C(=O)N1CCN1CCN(CC(O)COc2ccc3ccccc3c2)CC1 (configuration not stated),"inconclusive: 8.91 µM [inhibitor, partial curve, poor fit]",
O=C(O)c1ccc(NC(=S)NC2CCCCC2)cc1,"inconclusive: 0.092 µM [activator, partial curve, poor fit]",
O=C(COC(=O)c1nc(Cl)ccc1Cl)c1ccccc1Cl,"inconclusive: 0.316 µM [inhibitor, partial curve, poor fit]",
COC(=O)c1cc2sc(C)cc2n1Cc1nc(-c2cccc(Br)c2)oc1C,inactive,
Cn1ccnc1P(=S)(c1nccn1C)c1nccn1C,"inconclusive: 14.6 µM [activator, partial curve, poor fit]",
COc1ccc(OC)c(NC(=O)c2ccc3c(=O)n(CCc4ccccc4)c(=S)[nH]c3c2)c1,"inconclusive: 0.447 µM [inhibitor, full curve, poor fit]",
CCOC(=O)N/N=C\c1ccc([N+](=O)[O-])o1,inactive,

# Part of the list above in a different format:
SMILES | Potency | activity change, negative = inhibition
CCCNC(=O)COC(=O)c1ccccc1C(=O)c1ccc(Cl)c([N+](=O)[O-])c1 | active: 3.16 µM | 
CCOc1ccccc1-n1nnnc1SCc1nc2ccccc2s1 | inconclusive: 10 µM [inhibitor, single point] | 
COc1ccc(OC)c(NC(=O)c2ccc3c(=O)n(CCc4ccccc4)c(=S)[nH]c3c2)c1 | inconclusive: 0.447 µM [inhibitor, full curve, poor fit] | 

# — PubChem BioAssay AID540276 (National Center for Advancing Translational Sciences (NCATS), 2011)
